PubChem BioAssay AID1259254, NCATS, 2017

Test: 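Gene knock-downs that lead to re-replication, shown by excess G2 DNA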 (primary screen)
Cells: human HCT116 colorectal cancer cells
Reagents: single siRNA against human genes
Time to read-out: 3 days
Read-out: 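Nuclei stained with Hoechst and imaged; cell-cycle phase assigned by DNA content; G2 share scaled per plate, non-targeting siRNA 0%, GMNN siRNA 100%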
Reading the numbers: G2 robust z-score and G2 cells, % of GMNN control: higher = more G2 cells, more excess DNA replication; raw share of cells in G2: higher = larger share of cells with G2 DNA content
Call rule: 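An siRNA counts as active if its G2 robust z-score lies at least 5 MADs above the screen median; here such calls match roughly 38% of GMNN control or more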
Here is one part, drawn at random, of about 59,000 reagents. About 1,550 of them (2.6%) count as active. 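G2 share is only a proxy for re-replication; each gene was hit by three separate siRNAs, and active genes were retested.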 Raw values vary from plate to plate and are shown uncorrected. Entries without a mark were called inactive. Reagents against one gene are numbered here. Not stated in the record: the amount of reagent.

target gene | reagent no. | G2 robust z-score | G2 cells, % of GMNN control | raw share of cells in G2 (%)
TMEM184C (transmembrane protein 184C) | 1 | -0.281 | 0.987 | 4.9
TMEM184C (transmembrane protein 184C) | 2 | 0.619 | 7.32 | 7.17
TMEM184C (transmembrane protein 184C) | 3 | 0.037 | 3.23 | 4.17
VWA5B2 (von Willebrand factor A domain containing 5B2) | 1 | 0.0284 | 3.17 | 5.43
VWA5B2 (von Willebrand factor A domain containing 5B2) | 2 | -0.745 | -2.27 | 2.29
VWA5B2 (von Willebrand factor A domain containing 5B2) | 3 | -0.108 | 2.21 | 3.63
CAPRIN1 (cell cycle associated protein 1) | 1 | 0.202 | 4.39 | 7.21
CAPRIN1 (cell cycle associated protein 1) | 2 | -0.52 | -0.688 | 5.09
CAPRIN1 (cell cycle associated protein 1) | 3 | -0.623 | -1.42 | 2.73
TRAPPC3 (trafficking protein particle complex subunit 3) | 1 | -0.939 | -3.64 | 2.46
TRAPPC3 (trafficking protein particle complex subunit 3) | 2 | 1 | 10 | 8.33
TRAPPC3 (trafficking protein particle complex subunit 3) | 3 | 1.99 | 17 | 8.61
MRPL20 (mitochondrial ribosomal protein L20) | 1 | 3.37 | 26.6 | 14.8
MRPL20 (mitochondrial ribosomal protein L20) | 2 | -0.262 | 1.12 | 4.6
MRPL20 (mitochondrial ribosomal protein L20) | 3 | -1.2 | -5.44 | 1.4
ATP13A5 (ATPase 13A5) | 1 | -0.398 | 0.171 | 5.35
ATP13A5 (ATPase 13A5) | 2 | 1.08 | 10.6 | 8.36
ATP13A5 (ATPase 13A5) | 3 | 0.967 | 9.77 | 8.19
WASHC2FP (WASHC2F, pseudogene) | 1 | -0.522 | -0.708 | 2.57
WASHC2FP (WASHC2F, pseudogene) | 2 | 0.307 | 5.13 | 5.56
WASHC2FP (WASHC2F, pseudogene) | 3 | -0.00858 | 2.91 | 4.25
CLCN4 (Cl-/H+ antiporter 4) | 1 | 0.665 | 7.64 | 8.07
CLCN4 (Cl-/H+ antiporter 4) | 2 | -1.1 | -4.76 | 3.17
CLCN4 (Cl-/H+ antiporter 4) | 3 | -0.0176 | 2.84 | 5.49
MAFG (MAF bZIP transcription factor G) | 1 | 2.62 | 21.4 | 13.9
MAFG (MAF bZIP transcription factor G) | 2 | -1.23 | -5.7 | 3.16
MAFG (MAF bZIP transcription factor G) | 3 | -1.41 | -6.98 | 0.891
EIF3G (eukaryotic translation initiation factor 3 subunit G) | 1 | 1.32 | 12.2 | 10.1
EIF3G (eukaryotic translation initiation factor 3 subunit G) | 2 | 4.13 | 32 | 16.5
EIF3G (eukaryotic translation initiation factor 3 subunit G) | 3 | 1.36 | 12.5 | 9.2
PDCD6IP (programmed cell death 6 interacting protein) | 1 | 0.312 | 5.16 | 4.96
PDCD6IP (programmed cell death 6 interacting protein) | 2 | 0.205 | 4.41 | 6.87
PDCD6IP (programmed cell death 6 interacting protein) | 3 | -0.62 | -1.4 | 4.18
STX7 (syntaxin 7) | 1 | 0.285 | 4.97 | 5.18
STX7 (syntaxin 7) | 2 | -0.217 | 1.44 | 6.63
STX7 (syntaxin 7) | 3 | -0.104 | 2.24 | 4.28
CEP164 (centrosomal protein 164) | 1 | -0.648 | -1.59 | 4.36
CEP164 (centrosomal protein 164) | 2 | -0.476 | -0.381 | 3.98
CEP164 (centrosomal protein 164) | 3 | 0.829 | 8.8 | 6.47
CYB561D2 (cytochrome b561 family member D2) | 1 | -1.06 | -4.48 | 1.5
CYB561D2 (cytochrome b561 family member D2) | 2 | 2.43 | 20.1 | 12.9
CYB561D2 (cytochrome b561 family member D2) | 3 | 3.35 | 26.5 | 15.1
ALKBH8 (alkB homolog 8, tRNA methyltransferase) | 1 | 2.24 | 18.7 | 13
ALKBH8 (alkB homolog 8, tRNA methyltransferase) | 2 | 0.183 | 4.25 | 7.65
ALKBH8 (alkB homolog 8, tRNA methyltransferase) | 3 | -0.117 | 2.14 | 5.29
LINC02043 (long independently transcribed non-coding RNA 2043) | 1 | 0.121 | 3.82 | 4.93
LINC02043 (long independently transcribed non-coding RNA 2043) | 2 | -0.153 | 1.89 | 4.41
LINC02043 (long independently transcribed non-coding RNA 2043) | 3 | 1.88 | 16.2 | 10.2
CRCT1 (cysteine rich C-terminal 1) | 1 | -0.612 | -1.34 | 3.29
CRCT1 (cysteine rich C-terminal 1) | 2 | -1.46 | -7.33 | 2.63
CRCT1 (cysteine rich C-terminal 1) | 3 | 6.33 (active) | 47.5 | 21.8
GPR156 (G protein-coupled receptor 156) | 1 | -0.0677 | 2.49 | 6.73
GPR156 (G protein-coupled receptor 156) | 2 | 0.388 | 5.7 | 6.51
GPR156 (G protein-coupled receptor 156) | 3 | -0.572 | -1.05 | 2.95
TRA2B (transformer 2 beta homolog) | 1 | 1.01 | 10.1 | 9.08
TRA2B (transformer 2 beta homolog) | 2 | 0.256 | 4.77 | 6.18
TRA2B (transformer 2 beta homolog) | 3 | -0.356 | 0.459 | 4.11
MS4A4A (membrane spanning 4-domains A4A) | 1 | 2.78 | 22.6 | 16.2
MS4A4A (membrane spanning 4-domains A4A) | 2 | -0.0931 | 2.31 | 4.69
MS4A4A (membrane spanning 4-domains A4A) | 3 | -0.832 | -2.89 | 3.18
CACNG7 (calcium voltage-gated channel auxiliary subunit gamma 7) | 1 | -0.832 | -2.89 | 3.25
CACNG7 (calcium voltage-gated channel auxiliary subunit gamma 7) | 2 | 2.75 | 22.3 | 13.4
CACNG7 (calcium voltage-gated channel auxiliary subunit gamma 7) | 3 | -0.511 | -0.631 | 4.57
MYH11 (myosin heavy chain 11) | 1 | -0.902 | -3.38 | 4.13
MYH11 (myosin heavy chain 11) | 2 | 2.43 | 20 | 9.8
MYH11 (myosin heavy chain 11) | 3 | -0.714 | -2.06 | 4.56
IRF3 (interferon regulatory factor 3) | 1 | -0.701 | -1.97 | 3.48
IRF3 (interferon regulatory factor 3) | 2 | 0.832 | 8.82 | 9.04
IRF3 (interferon regulatory factor 3) | 3 | -0.718 | -2.08 | 4.29
OR2H2 (olfactory receptor family 2 subfamily H member 2) | 1 | 0.138 | 3.94 | 6.88
OR2H2 (olfactory receptor family 2 subfamily H member 2) | 2 | -0.206 | 1.52 | 4.5
OR2H2 (olfactory receptor family 2 subfamily H member 2) | 3 | -0.6 | -1.25 | 2.91
MNS1 (meiosis specific nuclear structural 1) | 1 | -0.319 | 0.72 | 4.8
MNS1 (meiosis specific nuclear structural 1) | 2 | 0.327 | 5.27 | 6.32
MNS1 (meiosis specific nuclear structural 1) | 3 | 1.35 | 12.5 | 7.12
RUNX1T1 (RUNX1 partner transcriptional co-repressor 1) | 1 | 0.0732 | 3.48 | 4.84
RUNX1T1 (RUNX1 partner transcriptional co-repressor 1) | 2 | -0.896 | -3.34 | 3.28
RUNX1T1 (RUNX1 partner transcriptional co-repressor 1) | 3 | 0.818 | 8.72 | 6.27
JUNB (JunB proto-oncogene, AP-1 transcription factor subunit) | 1 | -0.695 | -1.92 | 4.95
JUNB (JunB proto-oncogene, AP-1 transcription factor subunit) | 2 | -0.62 | -1.39 | 3.69
JUNB (JunB proto-oncogene, AP-1 transcription factor subunit) | 3 | 4.37 | 33.7 | 17.3
NT5C (5', 3'-nucleotidase, cytosolic) | 1 | -1.46 | -7.32 | 1.06
NT5C (5', 3'-nucleotidase, cytosolic) | 2 | 2.26 | 18.8 | 11.7
NT5C (5', 3'-nucleotidase, cytosolic) | 3 | 0.456 | 6.17 | 5.2
METTL15P3 (methyltransferase like 15 pseudogene 3) | 1 | -0.767 | -2.43 | 2.4
METTL15P3 (methyltransferase like 15 pseudogene 3) | 2 | -0.771 | -2.46 | 2.28
METTL15P3 (methyltransferase like 15 pseudogene 3) | 3 | -0.568 | -1.03 | 3.69

A portion of the results above, for reference:
target gene | reagent no. | G2 robust z-score | G2 cells, % of GMNN control | raw share of cells in G2 (%)
CLCN4 (Cl-/H+ antiporter 4) | 2 | -1.1 | -4.76 | 3.17
CLCN4 (Cl-/H+ antiporter 4) | 3 | -0.0176 | 2.84 | 5.49
MAFG (MAF bZIP transcription factor G) | 1 | 2.62 | 21.4 | 13.9
MAFG (MAF bZIP transcription factor G) | 2 | -1.23 | -5.7 | 3.16
MAFG (MAF bZIP transcription factor G) | 3 | -1.41 | -6.98 | 0.891
EIF3G (eukaryotic translation initiation factor 3 subunit G) | 1 | 1.32 | 12.2 | 10.1
EIF3G (eukaryotic translation initiation factor 3 subunit G) | 2 | 4.13 | 32 | 16.5
EIF3G (eukaryotic translation initiation factor 3 subunit G) | 3 | 1.36 | 12.5 | 9.2
PDCD6IP (programmed cell death 6 interacting protein) | 1 | 0.312 | 5.16 | 4.96
PDCD6IP (programmed cell death 6 interacting protein) | 2 | 0.205 | 4.41 | 6.87
PDCD6IP (programmed cell death 6 interacting protein) | 3 | -0.62 | -1.4 | 4.18
STX7 (syntaxin 7) | 1 | 0.285 | 4.97 | 5.18
STX7 (syntaxin 7) | 2 | -0.217 | 1.44 | 6.63
STX7 (syntaxin 7) | 3 | -0.104 | 2.24 | 4.28
